# Earlier results in US20240182941A1, “XYLOSYLATED STEVIOL GLYCOSIDES AND ENZYMATIC METHODS FOR PRODUCTION” (CARGILL, INCORPORATED, priority 2021, published 2024).
# Some results were stated once for a whole list of compounds, not compound by compound. For at least one compound, name, drawing or mass did not settle the structure.
# Conditions: times sweeter than sucrose; cited from earlier work
row,SMILES,sweetness relative to sucrose
1,"C=C1C[C@@]23CC[C@H]4[C@@](C)(CCC[C@@]4(C)C(=O)O[C@@H]4O[C@H](CO)[C@@H](O)[C@H](O[C@@H]5O[C@H](CO)[C@@H](O)[C@H](O)[C@H]5O)[C@H]4O[C@@H]4O[C@H](CO)[C@@H](O)[C@H](O)[C@H]4O)[C@@H]2CC[C@]1(O[C@@H]1O[C@H](CO)[C@@H](O)[C@H](O[C@@H]2O[C@H](CO)[C@@H](O)[C@H](O)[C@H]2O)[C@H]1O[C@@H]1O[C@H](CO)[C@@H](O)[C@H](O)[C@H]1O)C3 [Reb M, Rebaudioside M]",up to 350 times
2,"C=C1C[C@@]23CC[C@H]4[C@@](C)(CCC[C@@]4(C)C(=O)O[C@@H]4O[C@H](CO)[C@@H](O)[C@H](O)[C@H]4O[C@@H]4O[C@H](CO)[C@@H](O)[C@H](O)[C@H]4O)[C@@H]2CC[C@]1(O[C@@H]1O[C@H](CO)[C@@H](O)[C@H](O[C@@H]2O[C@H](CO)[C@@H](O)[C@H](O)[C@H]2O)[C@H]1O[C@@H]1O[C@H](CO)[C@@H](O)[C@H](O)[C@H]1O)C3 [Reb D, Rebaudioside D]",up to 350 times
